The subject of the assay is P388 leukemia ip, CD2F1 mice, survival T/C. The assay can be described thus: NCI In Vivo Anticancer Drug Screen. Data for tumor model P388 Leukemia (intraperitoneal) in CD2F1 (CDF1) mice. The settings on record: T/C endpoint: median survival time, higher T/C = longer survival.
Setting [1] is: dose: 120.0 mg/kg/injection, schedule: Q01DX005 (ip), vehicle: saline with Tween-80.
The mark [2] stands for this setting: dose: 240.0 mg/kg/injection, schedule: Q01DX005 (ip), vehicle: saline with Tween-80.
Setting [3] is: dose: 200.0 mg/kg/injection, schedule: Q01DX005 (ip), vehicle: saline with Tween-80.
Where [4] appears, read: dose: 200.0 mg/kg/injection, schedule: Q01DX005 (ip), vehicle: Klucel (hydroxypropylcellulose) (HPC).
Where [5] appears, read: dose: 100.0 mg/kg/injection, schedule: Q01DX009 (ip), vehicle: Klucel (hydroxypropylcellulose) (HPC).
[6] abbreviates: dose: 100.0 mg/kg/injection, schedule: Q01DX009 (ip), vehicle: saline with Tween-80.
Setting [7] is: dose: 50.0 mg/kg/injection, schedule: Q01DX009 (ip), vehicle: Klucel (hydroxypropylcellulose) (HPC).
Where [8] appears, read: dose: 200.0 mg/kg/injection, schedule: Q01DX009 (ip), vehicle: Klucel (hydroxypropylcellulose) (HPC).
[9] abbreviates: dose: 50.0 mg/kg/injection, schedule: Q01DX009 (ip), vehicle: saline.

Each structure is given as a SMILES string. The list does not hold the whole screen: it gathers tests that were run many times, whatever their T/C, doses with no T/C, and many T/C values between a quarter and a half above the control. Other doses and runs of a compound stand elsewhere. T/C: endpoint of the treated group in % of that of the vehicle group. Some doses have a count of surviving animals in place of a T/C: the source holds a T/C of zero for them, seemingly a mark for toxic or unscored doses. Some survivor counts are full or nearly so, which does not show that the dose was tolerated: the source hardly ever lists a survival T/C far under the control, and the zero likely stands for such cases as well. Survivors were counted at the toxicity check, usually on the fifth day, unless a day is given; later deaths do not show. Schedules are NCI's codes, taken here to give the interval after Q, in days (D) or hours (H), and the number of doses after X. Some doses were run more than once; the results are listed from low to high. For survival time, the PubChem record calls one and a half times the control and up active, and a quarter to a half above the control has no call in these data; cut-offs in other NCI protocols can differ. Some T/C values are followed by the survivors on the day toxicity was checked, most often the fifth; without a count, all were alive then.

For the compound `Cn1c(Cl)c(/C=N\Nc2ccccc2[N+](=O)[O-])c2ccccc21`, the survivor count (dose: 12.5 mg/kg/injection, schedule: Q01DX001 (ip), vehicle: Klucel (hydroxypropylcellulose) (HPC)) is reported as 6 of 6; the survivor count (dose: 25.0 mg/kg/injection, schedule: Q01DX001 (ip), vehicle: Klucel (hydroxypropylcellulose) (HPC)) was 6 of 6; the survivor count (dose: 50.0 mg/kg/injection, schedule: Q01DX001 (ip), vehicle: Klucel (hydroxypropylcellulose) (HPC)) was 6 of 6; the survivor count (dose: 100.0 mg/kg/injection, schedule: Q01DX001 (ip), vehicle: Klucel (hydroxypropylcellulose) (HPC)) is 6 of 6.
Turning to `CC1=C(C#N)C(=O)OC1(C)C1CCCC(=O)C1` (stereo not given), the survivor count by setting is: under setting [1], 3 of 6; under setting [2], 3 of 6.
On to `CCC(C1SC(=S)NC1=O)C1SC(=S)NC1=O` (stereo not given), for which the survivor count under setting [3] is given as 3 of 5.
On to `CSCCCNCc1ccccc1`, for which the survivor count (dose: 200.0 mg/kg/injection, schedule: Q01DX005 (ip), vehicle: saline) was 0 of 6.
Turning to `O=CC(O)C(O)C(O)COc1cc(CO)cc2c1C(=O)c1ccccc1C2=O` (stereo not given), the survivor count under setting [4] is 2 of 5.
For `C(=C\CSc1ccccn1)/CSc1ccccn1`, the survivor count under setting [5] is 6 of 6.
Regarding `COc1cc(N)c(C)c2c(C)ccnc12`, the survivor count is, setting by setting: (dose: 120.0 mg/kg/injection, schedule: Q01DX005 (ip), vehicle: Klucel (hydroxypropylcellulose) (HPC)) 0 of 6; (dose: 240.0 mg/kg/injection, schedule: Q01DX005 (ip), vehicle: Klucel (hydroxypropylcellulose) (HPC)) 0 of 6.
As for `C1C[N-]CC[N-]CC[N-]CC[N-]1.[Cl][Rh][Cl]`, the T/C (dose: 1.56 mg/kg/injection, schedule: Q01DX009 (ip), vehicle: saline) was 138 % of control. Besides, the survivor count (dose: 25.0 mg/kg/injection, schedule: Q01DX009 (ip), vehicle: saline) is on record as 4 of 6.
As for `O=NN(Cc1cccnc1)C(=O)NC1CCCCC1`, the survivor count by setting is: (dose: 200.0 mg/kg/injection, schedule: Q01DX001 (ip), vehicle: distilled water + Tween-80) 3 of 6; (dose: 400.0 mg/kg/injection, schedule: Q01DX001 (ip), vehicle: distilled water + Tween-80) 0 of 6.
As for `Cc1oc2c(C)c3oc(=O)cc(C)c3cc2c1CCl`, the T/C was 125 % of control (dose: 50.0 mg/kg/injection, schedule: Q04DX002 (ip), vehicle: saline with Tween-80); 132 % of control (dose: 100.0 mg/kg/injection, schedule: Q05DX002 (ip), vehicle: saline with Tween-80); 136 % of control (dose: 200.0 mg/kg/injection, schedule: Q05DX002 (ip), vehicle: saline with Tween-80).
For the compound `Nc1cc2c(cc1Br)-c1ccccc1C2=O`, for the setting “dose: 400.0 mg/kg/injection, schedule: Q01DX009 (ip), vehicle: saline with Tween-80”, the survivor count is given as 5 of 6.
For the compound `C=CCN1CSC(=S)N(CC=C)C1`, under setting [6], the T/C was 129 % of control and the survivor count is on record as 3 of 6. Moreover, the survivor count (dose: 200.0 mg/kg/injection, schedule: Q01DX009 (ip), vehicle: saline with Tween-80) is 1 of 6 and 2 of 6.
For `CSCCC(NC(=O)OC(C)(C)C)C(=O)ON1C(=O)CCC1=O` (stereo not given), the T/C (dose: 50.0 mg/kg/injection, schedule: Q01DX005 (ip), vehicle: saline with Tween-80) is 125 % of control.
In the case of `O=C1C=C2C(=CCOC2O)O1` (stereo not given), the T/C was 125 and 128 % of control (dose: 0.5 mg/kg/injection, schedule: Q01DX009 (ip), vehicle: Klucel (hydroxypropylcellulose) (HPC)); 125 and 128 % of control (dose: 1.0 mg/kg/injection, schedule: Q01DX009 (ip), vehicle: Klucel (hydroxypropylcellulose) (HPC)); 125 % of control (dose: 1.0 mg/kg/injection, schedule: Q01DX009 (ip), vehicle: saline with Tween-80); 134 % of control (dose: 3.0 mg/kg/injection, schedule: Q01DX009 (ip), vehicle: saline with Tween-80); 125 % of control (dose: 3.0 mg/kg/injection, schedule: Q04DX003 (ip), vehicle: saline with Tween-80). Also, the survivor count (dose: 8.0 mg/kg/injection, schedule: Q01DX009 (ip), vehicle: Klucel (hydroxypropylcellulose) (HPC)) was 1 of 6 and the survivor count (dose: 10.0 mg/kg/injection, schedule: Q01DX009 (ip), vehicle: saline with Tween-80) is 2 of 6.
On to `O=C(O)Cn1c(=S)sc2ccccc21`, for which the survivor count reads like this: under setting [7], 0 of 6; under setting [5], 0 of 6; under setting [8], 0 of 6; (dose: 400.0 mg/kg/injection, schedule: Q01DX009 (ip), vehicle: Klucel (hydroxypropylcellulose) (HPC)) 0 of 6.
With `O=S1(=O)C(CCCCC2=Cc3ccccc3S2(=O)=O)=Cc2ccccc21`, the survivor count under setting [3] is listed as 6 of 6.
On to `Clc1ccc2c(NCC3CCCN4CCCCC34)ccnc2c1` (stereo not given), for which the survivor count under setting [4] is given as 1 of 6.
`C=CC(=NC(C)(C)C)Nc1cccc(Cl)c1`: the survivor count runs as follows: (dose: 100.0 mg/kg/injection, schedule: Q04DX003 (ip), vehicle: saline with Tween-80) 0 of 6; (dose: 200.0 mg/kg/injection, schedule: Q04DX003 (ip), vehicle: saline with Tween-80) 0 of 6; (dose: 400.0 mg/kg/injection, schedule: Q04DX003 (ip), vehicle: saline with Tween-80) 0 of 6.
As for `CCC(=O)NC1=C(N2CC2C)C(=O)C(NC(=O)CC)=C(N2CC2C)C1=O` (stereo not given), the survivor count under setting [7] is given as 5 of 6; the survivor count under setting [9] is on record as 6 of 6; the survivor count under setting [5] is recorded as 0 of 6; the survivor count (dose: 100.0 mg/kg/injection, schedule: Q01DX009 (ip), vehicle: saline) is 4 of 6.
For the compound `C=C1CC(c2ccc(S(=O)(=O)N3CCOCC3)cc2)OC1=O` (stereo not given), under setting [4], the survivor count is recorded as 1 of 6.
Turning to `Cc1ccc2c(c1)C1(SC(C)C(=O)N1c1ccc(Cl)cc1)C(=O)N2` (stereo not given), the T/C is 126 % of control under setting [1]; 133 and 141 % of control under setting [2].
With `C[C@]12CCC(=O)C=C1CC[C@@H]1[C@@H]2C(=O)C[C@@]2(C)[C@H]1CC[C@]2(O)C(=O)C=O`, the T/C was 128 % of control (dose: 25.0 mg/kg/injection, schedule: Q01DX009 (ip), vehicle: Klucel (hydroxypropylcellulose) (HPC)) and 128 % of control under setting [7]. Also, the survivor count is 3 of 6 under setting [5] and 0 of 6 under setting [8].
On to `CSc1nc(NC2OCC(O)C(O)C2O)c(C=O)c(=O)[nH]1` (stereo not given), for which the survivor count reads like this: under setting [1], 5 of 6; under setting [2], 3 of 6.
Turning to `COc1ccc(NN=O)nc1Br`, under setting [9], the T/C was 125 [5 of 6 alive] and 137 % of control.
On to `CCC1C2Cc3ccc(O)cc3C1(C)CCN2` (stereo not given), for which the survivor count (dose: 240.0 mg/kg/injection, schedule: Q01DX005 (ip), vehicle: saline) is given as 2 of 6.

The values above are taken from PubChem BioAssay AID330 (DTP/NCI, 2004).
